The target of assay [1] is OCRL1, endogenous in Caco-2 cells (human (endogenous in Caco-2)) (UniProt Q01968). Briefly: co-IP; antibodies to OCRL1, pre-cleared Caco-2 cell lysate; control normal sheep immunoglobulin; blot for ZO-1.
The target of assay [2] is GFP tagged human OCRL1 (wild-type, isoform b = 893 amino acids) (human) (UniProt Q01968). Kind of assay: co-IP; GFP precipitated from Caco-2 cells transiently transfected with GFP-OCRL1; control rabbit immunoglobulin; immunoblot for ZO-1.
Assay [3] deals with Zonula occludens-1 (ZO-1), endogenous in MDCK cells (dog (endogenous in MDCK)) (UniProt O97758). Briefly: co-IP; antibodies to ZO-1 on Protein G beads, pre-cleared MDCK cell lysates; control rabbit Ig; lysis buffer 10 mM HEPES, 142.5 mM KCl, 0.2% NP-40, pH 7.4; 4°C for two hours; blots for ZO-1/2/3 or OCRL1.

Sequences of proteins named here, by UniProt entry; tags and fusion partners are left off. A change or cut given only in a name is not applied to a line headed by its entry. A line that says so, or that is headed by a name, gives the form on record, which may keep a tag or linker.
UniProt Q01968: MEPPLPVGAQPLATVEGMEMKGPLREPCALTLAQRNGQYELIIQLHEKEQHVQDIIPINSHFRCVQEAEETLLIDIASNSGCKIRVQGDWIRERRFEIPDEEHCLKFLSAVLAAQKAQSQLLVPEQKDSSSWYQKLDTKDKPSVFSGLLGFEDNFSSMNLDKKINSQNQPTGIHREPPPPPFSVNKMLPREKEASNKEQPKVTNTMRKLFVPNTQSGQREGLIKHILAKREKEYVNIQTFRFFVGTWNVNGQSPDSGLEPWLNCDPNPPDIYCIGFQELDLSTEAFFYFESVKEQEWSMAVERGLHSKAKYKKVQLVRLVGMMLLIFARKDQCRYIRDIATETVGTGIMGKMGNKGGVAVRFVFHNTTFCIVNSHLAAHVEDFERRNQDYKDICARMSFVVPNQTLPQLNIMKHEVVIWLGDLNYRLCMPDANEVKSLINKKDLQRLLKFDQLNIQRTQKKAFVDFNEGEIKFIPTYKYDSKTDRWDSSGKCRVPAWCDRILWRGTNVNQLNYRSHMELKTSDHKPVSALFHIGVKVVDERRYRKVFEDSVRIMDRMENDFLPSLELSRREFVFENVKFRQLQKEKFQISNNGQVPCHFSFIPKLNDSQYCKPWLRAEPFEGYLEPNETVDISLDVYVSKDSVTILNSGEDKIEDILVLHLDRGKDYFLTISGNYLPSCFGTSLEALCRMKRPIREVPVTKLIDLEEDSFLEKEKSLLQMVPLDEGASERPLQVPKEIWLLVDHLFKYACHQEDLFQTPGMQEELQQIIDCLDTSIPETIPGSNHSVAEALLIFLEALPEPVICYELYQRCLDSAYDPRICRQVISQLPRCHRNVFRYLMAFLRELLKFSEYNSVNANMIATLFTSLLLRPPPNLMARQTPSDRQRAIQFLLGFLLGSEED
GFP tagged human OCRL1 (wild-type, isoform b = 893 amino acids) (Q01968, form named): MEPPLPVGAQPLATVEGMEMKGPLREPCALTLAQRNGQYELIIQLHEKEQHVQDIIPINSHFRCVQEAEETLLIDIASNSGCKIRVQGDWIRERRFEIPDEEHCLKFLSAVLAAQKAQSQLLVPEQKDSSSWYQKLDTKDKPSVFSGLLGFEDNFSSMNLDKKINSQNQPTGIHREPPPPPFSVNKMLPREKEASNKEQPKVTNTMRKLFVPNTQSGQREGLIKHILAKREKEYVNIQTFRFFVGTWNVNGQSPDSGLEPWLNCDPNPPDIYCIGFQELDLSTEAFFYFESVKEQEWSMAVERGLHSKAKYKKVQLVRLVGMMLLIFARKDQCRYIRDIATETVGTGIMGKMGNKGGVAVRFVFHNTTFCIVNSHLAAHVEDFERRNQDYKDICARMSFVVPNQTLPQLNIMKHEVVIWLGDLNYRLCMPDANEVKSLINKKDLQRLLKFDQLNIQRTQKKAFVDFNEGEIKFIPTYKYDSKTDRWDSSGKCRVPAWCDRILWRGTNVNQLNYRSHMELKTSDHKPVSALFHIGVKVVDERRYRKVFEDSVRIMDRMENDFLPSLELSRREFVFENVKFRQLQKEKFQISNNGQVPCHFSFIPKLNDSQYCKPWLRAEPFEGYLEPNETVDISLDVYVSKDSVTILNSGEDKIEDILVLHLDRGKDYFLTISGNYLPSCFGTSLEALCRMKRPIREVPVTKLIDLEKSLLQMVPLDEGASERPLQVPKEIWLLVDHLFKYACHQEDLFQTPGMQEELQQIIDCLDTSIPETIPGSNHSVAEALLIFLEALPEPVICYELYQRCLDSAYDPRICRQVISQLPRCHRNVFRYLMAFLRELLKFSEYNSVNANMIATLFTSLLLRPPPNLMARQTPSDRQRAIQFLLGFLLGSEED
UniProt O97758: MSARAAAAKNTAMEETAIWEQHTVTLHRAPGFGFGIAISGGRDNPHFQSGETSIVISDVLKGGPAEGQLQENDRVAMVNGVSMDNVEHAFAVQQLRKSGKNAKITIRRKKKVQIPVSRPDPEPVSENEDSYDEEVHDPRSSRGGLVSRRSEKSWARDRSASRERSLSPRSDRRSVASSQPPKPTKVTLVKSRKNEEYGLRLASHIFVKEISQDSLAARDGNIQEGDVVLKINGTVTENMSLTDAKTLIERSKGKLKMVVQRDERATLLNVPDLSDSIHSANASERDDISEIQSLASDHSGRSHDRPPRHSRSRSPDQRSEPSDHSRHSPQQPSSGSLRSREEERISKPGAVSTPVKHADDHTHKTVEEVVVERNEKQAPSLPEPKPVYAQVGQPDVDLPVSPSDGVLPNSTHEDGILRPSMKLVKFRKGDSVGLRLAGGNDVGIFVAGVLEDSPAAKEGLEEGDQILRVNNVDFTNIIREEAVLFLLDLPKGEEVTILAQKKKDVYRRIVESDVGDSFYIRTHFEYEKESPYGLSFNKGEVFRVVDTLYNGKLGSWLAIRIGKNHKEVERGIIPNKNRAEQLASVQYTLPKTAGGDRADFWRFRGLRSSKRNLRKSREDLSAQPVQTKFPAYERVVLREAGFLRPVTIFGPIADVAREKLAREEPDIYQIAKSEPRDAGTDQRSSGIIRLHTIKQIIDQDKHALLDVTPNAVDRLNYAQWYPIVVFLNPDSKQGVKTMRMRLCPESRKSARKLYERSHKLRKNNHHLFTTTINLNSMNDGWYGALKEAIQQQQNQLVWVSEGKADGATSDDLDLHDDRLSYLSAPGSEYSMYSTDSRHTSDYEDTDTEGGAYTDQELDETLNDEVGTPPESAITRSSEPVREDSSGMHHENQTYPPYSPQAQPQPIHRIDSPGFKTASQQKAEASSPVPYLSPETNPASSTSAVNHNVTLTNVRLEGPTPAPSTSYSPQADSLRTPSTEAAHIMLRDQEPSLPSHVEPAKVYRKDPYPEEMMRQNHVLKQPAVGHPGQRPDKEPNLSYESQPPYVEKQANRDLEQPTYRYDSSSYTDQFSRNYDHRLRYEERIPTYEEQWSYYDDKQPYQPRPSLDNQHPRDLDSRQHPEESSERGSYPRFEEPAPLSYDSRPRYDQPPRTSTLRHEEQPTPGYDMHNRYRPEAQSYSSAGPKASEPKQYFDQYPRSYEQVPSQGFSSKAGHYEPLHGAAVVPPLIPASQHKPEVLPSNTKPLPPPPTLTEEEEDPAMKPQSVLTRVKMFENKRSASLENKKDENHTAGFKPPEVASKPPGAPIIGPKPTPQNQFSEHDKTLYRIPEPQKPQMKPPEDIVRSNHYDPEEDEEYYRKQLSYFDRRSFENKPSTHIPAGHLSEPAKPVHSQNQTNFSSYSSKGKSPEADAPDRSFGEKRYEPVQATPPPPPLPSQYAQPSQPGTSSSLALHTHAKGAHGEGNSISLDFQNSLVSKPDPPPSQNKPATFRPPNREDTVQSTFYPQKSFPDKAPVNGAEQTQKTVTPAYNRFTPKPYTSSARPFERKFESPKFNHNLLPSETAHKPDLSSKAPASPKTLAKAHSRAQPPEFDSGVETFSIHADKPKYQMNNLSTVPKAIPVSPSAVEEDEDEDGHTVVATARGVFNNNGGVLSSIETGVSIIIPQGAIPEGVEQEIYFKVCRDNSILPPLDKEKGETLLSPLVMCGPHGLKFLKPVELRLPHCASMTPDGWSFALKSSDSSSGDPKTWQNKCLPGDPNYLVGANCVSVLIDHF
UniProt Q07157: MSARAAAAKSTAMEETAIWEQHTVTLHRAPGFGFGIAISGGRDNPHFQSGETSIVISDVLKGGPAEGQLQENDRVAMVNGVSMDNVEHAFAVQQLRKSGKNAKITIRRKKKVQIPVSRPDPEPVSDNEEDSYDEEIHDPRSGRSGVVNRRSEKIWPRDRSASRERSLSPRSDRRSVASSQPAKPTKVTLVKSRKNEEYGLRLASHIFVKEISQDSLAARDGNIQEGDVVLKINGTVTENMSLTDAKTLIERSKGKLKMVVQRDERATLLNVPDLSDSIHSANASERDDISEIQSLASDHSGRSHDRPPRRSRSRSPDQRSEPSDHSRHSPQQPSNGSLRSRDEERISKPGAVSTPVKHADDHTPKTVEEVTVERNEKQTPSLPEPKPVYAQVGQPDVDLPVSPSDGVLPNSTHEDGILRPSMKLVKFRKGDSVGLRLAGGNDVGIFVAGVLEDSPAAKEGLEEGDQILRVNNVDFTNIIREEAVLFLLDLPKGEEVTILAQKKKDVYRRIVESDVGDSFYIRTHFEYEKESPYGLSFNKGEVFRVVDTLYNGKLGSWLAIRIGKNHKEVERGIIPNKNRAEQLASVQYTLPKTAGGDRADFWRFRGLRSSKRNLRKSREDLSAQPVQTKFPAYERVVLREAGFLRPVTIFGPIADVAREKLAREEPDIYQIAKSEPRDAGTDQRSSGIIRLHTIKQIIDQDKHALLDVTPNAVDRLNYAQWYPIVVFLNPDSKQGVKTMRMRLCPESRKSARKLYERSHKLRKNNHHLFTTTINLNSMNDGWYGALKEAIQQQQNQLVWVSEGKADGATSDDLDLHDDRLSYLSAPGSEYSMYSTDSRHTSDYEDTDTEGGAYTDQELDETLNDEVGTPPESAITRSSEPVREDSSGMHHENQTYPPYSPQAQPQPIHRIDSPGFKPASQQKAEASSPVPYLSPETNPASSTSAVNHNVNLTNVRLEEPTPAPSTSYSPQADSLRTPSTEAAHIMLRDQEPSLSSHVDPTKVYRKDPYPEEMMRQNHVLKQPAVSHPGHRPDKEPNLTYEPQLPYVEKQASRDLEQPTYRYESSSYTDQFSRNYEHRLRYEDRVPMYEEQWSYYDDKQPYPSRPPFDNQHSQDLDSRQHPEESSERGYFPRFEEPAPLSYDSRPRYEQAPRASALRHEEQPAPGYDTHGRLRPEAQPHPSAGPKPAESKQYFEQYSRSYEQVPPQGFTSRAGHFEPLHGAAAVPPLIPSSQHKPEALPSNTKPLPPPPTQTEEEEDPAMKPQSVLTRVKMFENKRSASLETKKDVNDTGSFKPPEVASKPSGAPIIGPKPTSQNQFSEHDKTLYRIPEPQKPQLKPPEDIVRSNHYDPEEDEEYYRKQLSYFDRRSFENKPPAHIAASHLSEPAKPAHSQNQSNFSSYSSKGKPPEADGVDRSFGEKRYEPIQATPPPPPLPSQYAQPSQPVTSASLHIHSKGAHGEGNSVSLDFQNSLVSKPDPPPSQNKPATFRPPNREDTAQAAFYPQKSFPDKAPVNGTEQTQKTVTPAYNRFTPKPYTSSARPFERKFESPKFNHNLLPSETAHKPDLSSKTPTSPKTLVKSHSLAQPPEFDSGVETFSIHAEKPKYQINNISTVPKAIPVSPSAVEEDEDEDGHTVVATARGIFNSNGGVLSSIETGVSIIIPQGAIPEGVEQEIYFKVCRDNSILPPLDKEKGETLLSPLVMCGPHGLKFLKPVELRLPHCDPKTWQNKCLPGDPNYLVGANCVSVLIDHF

Binding data for three molecules are collected here from article PMC3162020.

These are yes or no findings as the source states them, for the method shown. In cells and extracts the contact can be indirect. Some binding calls cover weakened binding; strength is not graded here.

Turning to “Zonula occludens-1 (ZO-1), endogenous in Caco-2 cells (from UniProt Q07157 1-1748)”, the binding result in assay [1] and in assay [2] was “binds” throughout.

B1: Zonula occludens-2 (ZO-2), endogenous in MDCK cells (protein, UniProt Q95168 1-1174)
chain: MEELIWEQYTVTLQKDSKRGFGIAVSGGRDNPHFENGETSIVISDVLPGGPADGLLQENDRVVMVNGTPMEDVLHSFAVQQLRKSGKIAAIVVKRPRKVQLAPPQGSLPVDEDDRAFEVMDEFDGRSARSGYSERSRRSSHGGRSRSWEDSPERGRPHERAWSQERERSRGRSLERGLDHDDDYRRPRERSRGRSLERGLDHDDDYGRPGERSHGMSTDRGYDRGYDRGYDRGYDRTYSPEAEYGRRTQPDARHAGSRSRSREHLRSRSPSPELRGRPDHAGQPDSDRPIGVLLMKSKANEEYGLRLGSQIFIKQMTRTALATKDGNLHEGDIILKINGTVTENMSLTDARKLIEKSRGKLQLVVLRDSKQTLINIPSLNDSDSEIEDISEIESNRSFSPEERRQQYSDYDYHSSNEKLKERPNSREDMQNRWSRMGATPTPFKSMGDIASVVGTENSKEPRYQEEPPAPQPKAAPRTFLRPSPEDEAIYGPNTKMVRFKKGDSVGLRLAGGNDVGIFVAGIQEGTSAEQEGLQEGDQILKVNTQDFRGLVREDAVLYLLEIPKGEMVTILAQSRADVYRDILACGRGDSFFIRSHFECEKETPQSLAFSRGEVFRVVDTLYDGKLGHWLAVRIGNELEKGLIPNKSRAEQMASVQNAQRDNAGDRADFWRMRGQRSGMKKNLRKSREDLTAAVSVSTKFPAYERVLLREAGFKRPVVLFGPIADIALEKLANELPDLFQTAKTEPKDAGSEKSSGVVRLNTVRQIIEQDKHALLDVTPKAVDLLNYTQWFPIVIFFNPDSRQGVKTMRQRLNPTSNKSSRKLYDQANKLKKTCAHLFTATINLNSANDSWFGSLKDTIQHQQGEAVWVSEGKMEGMDDDPEDRMSYLTAMGADYLSCDSRLISDFEDTDGEGGAYTDNELDEPAEEPLVSSITRSSEPVQHEESIRKPSPEPRAQMRRAASRDQLRDSSPPPAFKPEPPKAKTQNREESFDISRSHDYKSNPSAVAGNEVSGASTRSCPPPIAAKPSFGRSILKPSTPVPSPESEEVGEGSEEQEGAPKSVLGKVKIFEKMDHKARLQRMQELQEAQNARIEIAQKHPDIYAVPIKTHKPDPGLSQHTSSRPPEPQKGPSRLYQDPRGSYGSDAEEEEYRQQLSEHSKRGYYSQPSRYRDTEL
As to B1, the binding result in assay [3] is given as “binds”.

B2: Zonula occludens-3 (ZO-3), endogenous in MDCK cells (protein, UniProt O62683 1-898)
chain: MEELTIWEQHTATLCRDPRRGFGIAISGGRDRASGSVVVSDVVPGGPADGRLQTGDHVVMVNGVSMESVTSTFAIQILKTCTKLANITVKRPRKIQLPATKAGTSGRGRQGLEEEADCGQGYDGDTSSGSGRSWDKRSRRARTGRRNQAGSRGRRSPGGNSEANGLALVSGFKRLPRQDVHMRPVKSVLVRRTESEEFGVTLGSQIFIKHITDSGLAARNRGLQEGDLILQINGVSSENLSLSDTRRLIEKSEGKLTLLVLRDRGQFLVNIPPAVSDSDSDSSFLDDISALGSELSQAVPSHVPPPPPHAQRSLDSDGTDSPRDSPPLRRENSLDSRTISEPDAPRHSSYDIYRVPSSQSAEDRGYSPDSRVVRFHKGTTIGLRLAGGNDVGIFVSGVQEGSPADGQGIQEGDQILQVNDVPFRNLTREEAVQFLVALPPGEEVELVTQRNEDIFRKMVQSRVGDSFYIRTHFELEASPPSGLGFTRGDVFHVLDTLCPGPGPSGARGTHWLAVRMGRDLREQERGIIPNQSRAEQLASLESAQRAVGAGPGASVGSSARAEFWRLRGLRRGAKKSTQRSREDLSALTRQGHYPPYERVVLREASFKRPVVILGPVADIAMQKLTAEMPDQFGIADSVLRTDSPSKIIKLDTVRVIAEKNKHALLDVTPSAVERLNYVQYYPIVVFCAPESRAALKALRQWLAPASRRSARRLYAQAQKLRKHSEHLFTATIPLRGTSDTWYQELKAVVREQQTRPIWTAEDQLDNSSEDNLELPHRGLADSSADLSCDSRVNSDYETDGEGYTDGEGYTDVDEGPPAPALARSSEPVLEEEPRSPRDHGRASGARGAQVDRHPYHSQGRQDSMRTYGQEALKKKFTRARDVESSDEDGYDWGPATDL
For B2, the binding entry in assay [3] is recorded as “binds”.
